{"source": "paper PMC5789848", "test_system": "T1, UPF1-HD DE636AA D636A,E637A (Homo sapiens)", "T1 sequence (looked up)": "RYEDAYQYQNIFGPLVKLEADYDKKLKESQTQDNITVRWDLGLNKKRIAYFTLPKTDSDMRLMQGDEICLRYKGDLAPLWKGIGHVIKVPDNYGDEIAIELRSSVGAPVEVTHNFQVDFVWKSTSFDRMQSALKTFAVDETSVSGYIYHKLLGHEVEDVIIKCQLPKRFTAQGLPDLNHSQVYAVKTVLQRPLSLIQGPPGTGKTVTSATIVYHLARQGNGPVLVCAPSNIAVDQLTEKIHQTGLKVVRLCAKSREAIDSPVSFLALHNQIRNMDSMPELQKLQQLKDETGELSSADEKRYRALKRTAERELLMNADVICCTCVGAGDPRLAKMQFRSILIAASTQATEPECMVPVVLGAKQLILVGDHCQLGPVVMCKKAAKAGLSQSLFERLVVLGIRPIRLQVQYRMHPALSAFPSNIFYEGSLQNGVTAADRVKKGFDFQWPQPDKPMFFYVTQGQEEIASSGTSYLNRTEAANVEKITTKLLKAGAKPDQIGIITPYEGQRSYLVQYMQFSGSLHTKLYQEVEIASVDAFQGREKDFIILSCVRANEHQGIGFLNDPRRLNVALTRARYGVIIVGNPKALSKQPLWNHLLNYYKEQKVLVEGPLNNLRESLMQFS", "test": "pull-down", "conditions": "200 mM NaCl; pull-down: BLI-like buffer, 30 C then 4 C, 200 mM NaCl wash; recombinant protein; residues 295-914; protein details: His; label: 3' biotin (BtnTg)", "note": "Construct, isoform or probe ends are uncertain for at least one entry. At least one verdict rests on a figure or table, not on a statement of the authors. Where a protein sequence is shown, tags need not be part of it.", "data": [{"sequence": "CGUCCAUCUGGUCAUCUAGUGAUAUCAUCG [30-mer ssRNA 3'-biotin (pull-down)]", "values": [{"measurement": "binding result", "result": "binds"}]}]}
